# Test results taken from PubChem BioAssay AID1487 (National Center for Advancing Translational Sciences (NCATS), 2009).
# “And” between values parts separate entries of the source, which are not always exact repeats. Equal entries are not always repeated. This is one part of the list. These are further read-outs of the screen, such as a control signal, another cell line or another target. No call is given for them. The list favours compounds with an active or inconclusive main result. Potencies come from curve fits of mixed quality, noted in brackets.
# Experiment: qHTS Assay for Modulators of Lamin A Splicing
# Conditions: HeLa LMNA splicing GFP/RFP minigene ratio, 48 h
# Outline: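 Read-out is the ratio of GFP to DsRed2 object intensity, acquired by 488 nm laser-scanning cytometry on HeLa lamin A-EGFP minigene reporter cells. Compound incubation 48 hrs at 37 °C in Opti-MEM with 2% FBS; DMSO 0.5% final.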
# [1] = measured here: GFP splicing reporter channel
# [2] = measured here: RFP viability control channel
Structure (SMILES),AC50 [1],AC50 [2]
C=CCOC(Cn1ccnc1)c1ccc(Cl)cc1Cl (stereo unspecified),"12.6 µM [rising, single point]","12.6 µM [rising, partial curve, poor fit]"
Brc1ccc2c(c1)C(OC1CN3CCC1CC3)c1ccccc1CS2 (stereo unspecified),"35.5 µM [rising, single point]","31.6 µM [rising, single point]"
Cc1cc2c(C(C)C)c(O)c(O)c(C=O)c2c(O)c1-c1c(C)cc2c(C(C)C)c(O)c(O)c(C=O)c2c1O,"12.6 µM [falling, single point] and 14.1 µM [falling, partial curve]","2.24 µM [rising, single point] and 7.94 µM [falling, partial curve]"
CCC(C)N1C(=O)/C(=C\c2cc3c4c(c2)CCCN4CCC3)C(=O)NC1=S (stereo unspecified),–,"3.98 µM [falling, partial curve, poor fit]"
C[C@@H](N)[C@@H](O)c1ccc(O)c(O)c1,"12.6 µM [rising, partial curve, poor fit]","2.24 µM [rising, partial curve, poor fit]"
CCCN1CC[C@@H]2c3cc(O)ccc3CC[C@@H]21,"0.00708 µM [rising, full curve, poor fit]","0.00891 µM [rising, full curve, poor fit]"
O=c1[nH]c2ccccc2n1C1CCN(CCCC(c2ccc(F)cc2)c2ccc(F)cc2)CC1,"2.51 µM [falling, partial curve, poor fit] and 3.16 µM [falling, partial curve, poor fit] and 15.8 µM [falling, partial curve]",–
Cc1ccc(-c2nn(C)c(=O)c3ccccc23)cc1CNC(=O)/C=C/c1ccccc1,"56.2 µM [falling, partial curve, poor fit]","39.8 µM [falling, partial curve, poor fit]"
O=C1C2CCN(CC2)C1Cc1ccc(OCc2ccccc2)cc1 (stereo unspecified),"0.316 µM [falling, partial curve, poor fit]","14.1 µM [falling, partial curve, poor fit]"
CC(=O)[O][Hg][c]1ccccc1,"25.1 µM [falling, partial curve, poor fit]","22.4 µM [falling, partial curve, poor fit]"
O=C(Cn1c(=O)oc2cc(S(=O)(=O)N3CCCC3)ccc21)Nc1cccc(C(F)(F)F)c1,"2 µM [rising, full curve]","4.47 µM [rising, full curve]"
O=C(c1ccc(N2CCCCC2)c([N+](=O)[O-])c1)N1CCC2(CC1)OCCO2,"0.708 µM [falling, partial curve, poor fit]",–
O=C(CN1CCCCC1)c1ccccc1F,"7.94 µM [falling, partial curve]",–
COc1ccc2ccc(O)c(CN3CC=C(c4ccccc4)CC3)c2c1,"0.0178 µM [falling, full curve, poor fit]",–
C[C@H](NC(C)(C)C)C(=O)c1cccc(Cl)c1,"0.00398 µM [falling, full curve, poor fit]",–
O=c1[nH]c(=S)n(-c2ccc(Br)cc2)c(O)c1C=Nc1ccc(N2CCOCC2)cc1,"12.6 µM [rising, single point]","22.4 µM [rising, single point]"
O=C(Nc1ccc(Br)cc1)c1cc(Br)cc(Br)c1O,"0.708 µM [rising, full curve, poor fit]","5.62 µM [rising, partial curve, poor fit]"
CNC[C@H](O)c1ccc(OC(=O)C(C)(C)C)c(OC(=O)C(C)(C)C)c1,"7.94 µM [falling, partial curve, poor fit]",–
O=C(N/N=C\c1ccc(COc2ccc([N+](=O)[O-])cc2)o1)c1cccc(Cl)c1,"28.2 µM [rising, single point]","35.5 µM [rising, single point]"
CCCSc1ccc2nc(NC(=O)OC)[nH]c2c1,"100 nM [falling, full curve] and 2.82 µM [rising, full curve]","398 nM [rising, full curve] and 1.12 µM [rising, full curve]"
COC(=O)[C@@H]1[C@@H]2C[C@H]3c4[nH]c5cc(OC)ccc5c4CCN3C[C@@H]2C[C@H](OC(=O)/C=C\c2cc(OC)c(OC)c(OC)c2)[C@H]1OC,"0.501 µM [falling, partial curve, poor fit]","14.1 µM [falling, single point]"
Cn1c(=O)oc2cc(S(=O)(=O)NC3CCCCCCC3)ccc21,–,"14.1 µM [rising, partial curve]"

# In the list so far, these contain a carbonyl joined to an NH by a bond outside any ring.
Structure (SMILES),AC50 [1],AC50 [2]
Cc1ccc(-c2nn(C)c(=O)c3ccccc23)cc1CNC(=O)/C=C/c1ccccc1,"56.2 µM [falling, partial curve, poor fit]","39.8 µM [falling, partial curve, poor fit]"
O=C(Cn1c(=O)oc2cc(S(=O)(=O)N3CCCC3)ccc21)Nc1cccc(C(F)(F)F)c1,"2 µM [rising, full curve]","4.47 µM [rising, full curve]"
O=C(Nc1ccc(Br)cc1)c1cc(Br)cc(Br)c1O,"0.708 µM [rising, full curve, poor fit]","5.62 µM [rising, partial curve, poor fit]"
O=C(N/N=C\c1ccc(COc2ccc([N+](=O)[O-])cc2)o1)c1cccc(Cl)c1,"28.2 µM [rising, single point]","35.5 µM [rising, single point]"
CCCSc1ccc2nc(NC(=O)OC)[nH]c2c1,"100 nM [falling, full curve] and 2.82 µM [rising, full curve]","398 nM [rising, full curve] and 1.12 µM [rising, full curve]"
